Values quoted from earlier work, collected in patent US7056911B1, “Dibenz[B,F]azepine compounds, pharmaceutical compositions comprising same and methods of use thereof” (Dana-Farber Cancer Institute, priority 1999, dated 2006).
At least one compound was matched to its structure with a doubt left.

Tested on: T. gondii cells
Details: typical value for the clinical agent; read-out: typical IC50 in the [3H]uracil incorporation assay; cited from earlier work

Compound: CCc1nc(N)nc(N)c1-c1ccc(Cl)cc1 [pyrimethamine, reference compound]
- IC50: 0.5 to 0.8 µM
